This is an account of results in patent publication US20210163945, “APTAMERS FOR TARGETING COAGULATION FACTOR XIII AND USES THEREOF” (Chang Gung University, published 2021).

At least one result comes from cells or an extract, where the contact may be indirect. Where a protein sequence is shown, tags need not be part of it.

The data set addresses T1, Coagulation factor XIII on activated platelets (Homo sapiens) (UniProt P00488).
T1 sequence (looked up, limits assumed): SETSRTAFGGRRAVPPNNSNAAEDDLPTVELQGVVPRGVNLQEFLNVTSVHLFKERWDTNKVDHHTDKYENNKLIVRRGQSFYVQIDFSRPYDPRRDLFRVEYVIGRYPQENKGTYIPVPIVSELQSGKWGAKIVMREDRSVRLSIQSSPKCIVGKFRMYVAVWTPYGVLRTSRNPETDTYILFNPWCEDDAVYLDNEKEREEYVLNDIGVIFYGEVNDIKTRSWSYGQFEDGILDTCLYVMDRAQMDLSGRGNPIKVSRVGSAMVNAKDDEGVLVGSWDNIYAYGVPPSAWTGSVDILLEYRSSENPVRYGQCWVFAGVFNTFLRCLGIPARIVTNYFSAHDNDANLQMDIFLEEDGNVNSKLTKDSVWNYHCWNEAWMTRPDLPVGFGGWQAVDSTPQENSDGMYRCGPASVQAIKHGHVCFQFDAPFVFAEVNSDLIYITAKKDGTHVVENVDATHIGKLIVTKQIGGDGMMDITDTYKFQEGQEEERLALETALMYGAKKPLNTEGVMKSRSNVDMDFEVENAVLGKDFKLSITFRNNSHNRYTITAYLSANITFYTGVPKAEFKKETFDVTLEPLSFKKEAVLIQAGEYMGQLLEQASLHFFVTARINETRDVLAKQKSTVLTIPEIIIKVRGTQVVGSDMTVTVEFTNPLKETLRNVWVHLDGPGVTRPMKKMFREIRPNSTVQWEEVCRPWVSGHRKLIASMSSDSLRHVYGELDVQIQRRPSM
Kind of data set: flow cytometry. As to conditions: also fibrin/activated platelets by confocal microscopy, no significant binding to un-activated platelets, protein on the cell surface, protein details: TRAP-activated human platelets, label: FAM or biotin, single-stranded DNA. (In general: Flow cytometry measures light scatter and fluorescence of single cells or particles in a stream.)

“CGCAGCATCATTCGGGTCGGGAAGGGGTGTACGGGGCTGCG [FAT2]”: the binding result is listed as “binds”.
